The whole screen tested about 360,000 compounds, of which about 7,500 (2.1%) were called active. This list was built around the results that the source calls inconclusive (neither active nor inactive); the mix of calls is not that of the screen. The call rests on the fitted dose curve; in most records, active means well fitted inhibition curve with a large enough effect; inconclusive means small, poorly fitted or top-dose-only effect, or effect the other way; inactive means flat fitted curve, though single readings scatter. Potencies of inconclusive entries are doubtful fits and often do not repeat.
test: Nrf2 qHTS screen for inhibitors; settings: A549 ARE-Fluc reporter, luciferase luminescence, 18-24 h; activity change, negative = inhibition: at 46 µM (top of the series); further: nearly all actives have a fitted effect of over 60% in size
Outline: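 Reporter: ARE-Fluc in A549. Exposure: 18-24 h, 37 °C, 5% CO2, 5% FBS OPTI-MEM. Readouts: fluorescent cytotoxicity (CellTiter-Fluor), then luminescent Nrf2 signal after BugLite.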
On the % scale 0 is the no-effect control and ±100 the full control effect; potency means the concentration at half of the fitted maximal effect.

Compound | Potency | activity change, negative = inhibition
CCc1ccccc1NC(=O)C1CC(c2ccc(F)cc2)=NO1 (stereo unspecified) | inconclusive: 18.4 µM [falling, partial curve, poor fit] | –
CN(C1CCCCC1)S(=O)(=O)c1ccc(NC(=O)C2CCCCC2)cc1 | active: 23.1 µM | –
CCc1ccc(C(=O)c2c(N)c(-c3nc(-c4ccc5c(c4)OCO5)cs3)c3ccccn23)cc1 | inconclusive: 4.61 µM [activator, full curve] | –
COc1ccc(C)cc1NC(=O)NNC(=O)C(C)Oc1ccc(F)cc1Cl (stereo unspecified) | inconclusive: 23.1 µM [falling, partial curve, poor fit] | –
COc1ccc(CCNC(=O)CCn2c(=O)c3ccccc3n(Cc3c(C)cc(C)cc3C)c2=O)cc1OC | – | inactive: 19.1%
O=C(Cc1cccs1)Nc1ccc(F)c(S(=O)(=O)N2CCOCC2)c1 | – | inactive: -4.17%
COc1ccc(NC(=S)NC(NC(=O)c2ccccc2Cl)C(Cl)(Cl)Cl)c([N+](=O)[O-])c1 (stereo unspecified) | inconclusive: 29.1 µM [falling, single point] | –
COc1ccc(OC)c(CCNC(=O)C(=O)Nc2ccc3nc4n(c(=O)c3c2)CCCCC4)c1 | active: 20.6 µM | –
COc1ccc(CN(C(=O)CSc2nnc(-c3c[nH]c4ccccc34)o2)c2ccc(F)cc2)cc1OC | active: 11.6 µM | –
CCC1C/C(=C\c2cc(OC)c(OC)cc2OC)C(=O)/C(=C/c2cc(OC)c(OC)cc2OC)C1 (stereo unspecified) | active: 18.4 µM | –
CCOc1ccc(NC(=O)C2CCCN(S(=O)(=O)c3c(C)noc3C)C2)cc1 (stereo unspecified) | inconclusive: 4.11 µM [falling, partial curve, poor fit] | –
Cc1cc(C(=O)N/N=C/c2ccc(Br)o2)n[nH]1 | inconclusive: 4.11 µM [falling, partial curve, poor fit] | –
Cc1ccc2c(c1)c1c(n2CC(O)Cn2nc(C)c(Br)c2C)CCCC1 (stereo unspecified) | – | inactive: -3.69%
COCCOC(=O)c1c(C)nc(SCC(=O)Nc2ccc(C)cc2)c(C#N)c1-c1ccco1 | – | inactive: -4.62%
CC(C)(C)NC(=O)CSc1nc(O)cc(=O)n1-c1ccccc1F | inconclusive: 0.651 µM [falling, full curve, poor fit] | –
CN(C(=O)c1cccc(NC(=O)Cc2ccc(NC(=O)C3CCN(C(=O)c4ccccc4)CC3)cc2)c1)C1CCCCC1 | inconclusive: 25.9 µM [activator, single point] | –
CCN(CCCNC(=O)CSc1cc(=O)n(C)c2cc(Cl)ccc12)c1cccc(C)c1 | – | inactive: 0.522%
Cc1c2cnn(-c3ccccc3)c(=O)c2c(C)n1CC(=O)N1CCN(c2ccc(F)cc2)CC1 | inconclusive: 14.6 µM [falling, partial curve, poor fit] | –
Cc1[nH]c2ccc(F)cc2c(=O)c1SC(F)(F)C(F)C(F)(F)F (stereo unspecified) | inconclusive: 25.9 µM [falling, single point] | –
COc1cc(-c2noc(-c3ccc(N4CCOCC4)c([N+](=O)[O-])c3)n2)cc(OC)c1OC | inconclusive: 3.26 µM [activator, full curve, poor fit] | –
COCCN(C(=O)COC(=O)c1ccccc1Nc1ccccc1)c1c(N)n(Cc2ccccc2)c(=O)[nH]c1=O | inconclusive: 16.4 µM [falling, partial curve, poor fit] | –

Compound | Potency | activity change, negative = inhibition
CCC(NC(=O)c1[nH]c(C)c(C(C)=O)c1C)c1ccc(Br)cc1 (stereo unspecified) | inconclusive: 16.4 µM [falling, single point] | –
Cc1cc(C)cc(NC(=O)C(=O)NCCc2c[nH]c3ccccc23)c1 | inconclusive: 0.92 µM [falling, single point] | –
Cn1c(SCC(=O)N/N=C/c2ccc([N+](=O)[O-])s2)nnc1-c1ccccc1 | active: 20.6 µM | –
COc1cccc(-c2nc(CS(=O)(=O)CC(=O)Nc3cc(F)ccc3F)c(C)o2)c1 | inconclusive: 23.1 µM [falling, single point] | –
O=C(Cc1ccccc1)NCCCNC(=O)Cc1ccccc1 | – | inactive: 7.24%
O=C(Nc1ccccc1)c1cc2ccccc2[nH]1 | inconclusive: 29.1 µM [activator, single point] | –
CC1CN(Cc2cc(=O)[nH]c(C(C)C)n2)CC(C)O1 (stereo unspecified) | – | inactive: -10.1%
Cc1ccc(-c2cc(C(F)(F)F)nc(SCC(=O)c3cccc([N+](=O)[O-])c3)n2)cc1 | inconclusive: 29.1 µM [falling, single point] | –
Cc1nc2ccccc2c(=O)n1/N=C/c1ccc2ccccc2c1O | inconclusive: 16.4 µM [falling, single point] | –
Cc1ccc(C(=O)c2c3ccc([N+](=O)[O-])cc3[n+]([O-])n2CCCN)cc1 | inconclusive: 20.6 µM [activator, partial curve, poor fit] | –
CCN(C(=O)CSc1nnc(-c2ccco2)n1Cc1ccccc1)C1CCS(=O)(=O)C1 (stereo unspecified) | inconclusive: 6.51 µM [falling, single point] | –
O=C1CC(c2ccco2)CC(O)=C1C=Nc1cc(Cl)ccc1O (stereo unspecified) | inconclusive: 23.1 µM [activator, single point] | –
CC(C)OC(=O)c1ccc(NC(=O)Cn2c(-c3nonc3N)nc3ccccc32)cc1 | inconclusive: 0.058 µM [falling, full curve, poor fit] | –
COc1ccccc1CCc1nnc(CCC(=O)N(C)Cc2cccc3ncccc23)o1 | inconclusive: 14.6 µM [falling, partial curve] | –
O=[N+]([O-])c1ccccc1N=Nc1ccc(O)cc1 | inconclusive: 25.9 µM [activator, single point] | –
COc1ccc2ccccc2c1C1CC(=O)N2CN(C3CCCCC3)CSC2=C1C#N (stereo unspecified) | – | inactive: -16.5%
Oc1ccc(N2Cc3ccccc3C2)cc1 | inconclusive: 3.66 µM [falling, single point] | –
Cc1ccc(NS(=O)(=O)c2cc(C(=O)NCCSc3ccc(C)cc3)ccc2C)cc1 | active: 23.1 µM | –
CSCCC(NC(=O)c1ccccc1)C(=O)NCCc1ccccc1 (stereo unspecified) | inconclusive: 25.9 µM [activator, single point] | –
Cc1cc(C)n(CC(O)Cn2c3ccc(Cl)cc3c3cc(Cl)ccc32)c(=O)n1 (stereo unspecified) | inconclusive: 29.1 µM [falling, single point] | –

Record cards, as listed above. Values in the order: Potency	activity change, negative = inhibition
`Cc1cc(C)cc(NC(=O)C(=O)NCCc2c[nH]c3ccccc23)c1` in the list: inconclusive: 0.92 µM [falling, single point]	–
`Cc1ccc(C(=O)c2c3ccc([N+](=O)[O-])cc3[n+]([O-])n2CCCN)cc1` in the list: inconclusive: 20.6 µM [activator, partial curve, poor fit]	–
`Oc1ccc(N2Cc3ccccc3C2)cc1` in the list: inconclusive: 3.66 µM [falling, single point]	–

— PubChem BioAssay AID504444 (National Center for Advancing Translational Sciences (NCATS), 2011)
